PubChem BioAssay AID1259314 | Drosophila RNAi Screening Center – 2017
Here is an unselected part of about 3,100 deposited reagents. 289 of all reagents (9.3%) were called active. 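Active includes both higher and lower ATP than plate average; check the z-score sign for direction.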 A number with no mark means an inactive call. Names joined by + are all predicted targets of the reagent. Reagent sequences are not shown. The record does not give: the amount of reagent.

Assay: 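Modifiers of manganese chloride toxicity in fly cells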 (primary screen)
System: Drosophila S2R+ cells
Reagent: long dsRNA against Drosophila genes
Time to read-out: 5 days (4 days knock-down, then 1 day metal exposure)
Challenge: manganese chloride added to 15 mM for 24 hours
Measured: 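Luciferase ATP signal used as a proxy for viable cell number, reported as one averaged z-score per dsRNA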
Reading the numbers: mean ATP z-score: higher = more ATP than the plate average, more viable cells under manganese
Call rule: 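Called active when the mean ATP z-score is above 1.5 or below -1.5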
Meaning of the calls: active = strong ATP change, up or down; inactive = no strong ATP change

no.	gene	DRSC id	mean ATP z-score
1	egh	DRSC18771	0.244
2	egh	DRSC29898	-0.717
3	CG40006	DRSC03787	-0.0441
4	CG40006	DRSC03814	0.205
5	Or82a	DRSC11996	-0.0638
6	Or82a	DRSC39482	0.0136
7	CG6006	DRSC13137	0.928
8	CG6006	DRSC15946	-0.114
9	SecCl	DRSC10887	-0.956
10	SecCl	DRSC39894	-0.33
11	CG11737	DRSC14364	0.711
12	CG34135 + CG11768	DRSC12702	-0.216
13	CG34135 + CG11768	DRSC38826	0.896
14	Syx1A	DRSC15359	-0.0168
15	Syx1A	DRSC21554	-0.0728
16	PIG-T	DRSC17774	0.154
17	PIG-T	DRSC39821	-1.12
18	CG9826	DRSC04570	-0.303
19	Ptpmeg2	DRSC18277	-0.338
20	Ptpmeg2	DRSC23303	-0.864
21	Ptpmeg2	DRSC26646	-0.18
22	MFS15	DRSC06523	0.123
23	MFS15	DRSC28274	3.23 (active)
24	Glut3	DRSC16681	0.0389
25	Glut3	DRSC26249	0.48
26	Gr93a	DRSC14593	-0.523
27	Gr93a	DRSC39755	-0.516
28	Tl	DRSC16885	0.181
29	Tl	DRSC39497	0.438
30	Osi18	DRSC12181	-0.622
31	kon	DRSC02033	1.28
32	kon	DRSC39622	0.0273
33	CG13325	DRSC06362	-0.253
34	CG13325	DRSC24773	0.0727
35	CG2061	DRSC19348	-0.479
36	CG2061	DRSC39511	-0.479
37	Ulp1	DRSC19339	-1.95 (active)
38	Ulp1	DRSC39704	-1.72 (active)
39	CG8195	DRSC07103	-0.966
40	Tpc2	DRSC04322	0.33
41	tinc	DRSC14799	-0.204
42	tinc	DRSC16308	-0.384
43	mys	DRSC18799	-0.286
44	mys	DRSC29061	0.5
45	S	DRSC24973	-1.01
46	S	DRSC39484	-0.0636
47	kirre	DRSC18785	-0.00282
48	kirre	DRSC24733	0.677
49	ACXC	DRSC00846	0.95
50	bib + lncRNA:CR13130	DRSC24888	-0.625
51	gny	DRSC02810	1.07
52	gny	DRSC39750	1.14
53	T48	DRSC16878	0.451
54	Ten-m	DRSC11664	-0.695
55	Ten-m	DRSC11882	-1.5
56	CG10444	DRSC05990	-1.38
57	CG10444	DRSC39598	-0.0905
58	CG4324	DRSC04462	-1.31
59	CG4324	DRSC27530	-0.503
60	CG5104	DRSC11765	0.756
61	CG5104	DRSC39641	2.83 (active)
62	ItgaPS5	DRSC04501	-0.486
63	ItgaPS5	DRSC28842	-0.324
64	Mayo	DRSC14300	-0.135
65	Tret1-2	DRSC07117	0.953
66	Tret1-2	DRSC28985	0.297
67	Orct2	DRSC14613	0.149
68	Orct2	DRSC24714	-0.497
69	CG9254	DRSC01969	0.637
70	Irk2	DRSC15569	-0.409
71	Irk2	DRSC39572	-0.0259
72	Or74a	DRSC11245	-1.04
73	Ir68a	DRSC10599	-0.428
74	Sb	DRSC16851	0.328
75	Sb	DRSC29250	0.0603
76	TM4SF	DRSC04661	1.17
77	TM4SF	DRSC39574	-0.31
78	Gr47a	DRSC06221	-0.747
79	Gr47a	DRSC39508	-0.171
80	CG31106	DRSC14655	-0.749
81	heix	DRSC03542	0.895
82	heix	DRSC39734	0.405
83	Tsp39D	DRSC03099	0.248
84	Tnpo-SR	DRSC00546	0.476
85	Tnpo-SR	DRSC38005	0.789
86	sut3	DRSC07702	2.03 (active)
87	sut3	DRSC24322	-0.0714
88	caps	DRSC11333	-0.844
89	caps	DRSC22224	0.786
90	Cad88C	DRSC15486	0.0385
91	Cad88C	DRSC26126	-0.756
92	CG1907	DRSC15399	1.33
93	CG33310	DRSC01897	-0.56
94	CG33310	DRSC24914	-0.15
95	Oatp33Ea	DRSC02859	-0.885
96	Oatp33Ea	DRSC26461	-0.973
97	Ptp10D	DRSC20272	-0.44
98	Ptp10D	DRSC36634	-0.226
99	Ptp10D	DRSC36635	0.29
100	ppk24	DRSC15093	-0.395
101	ppk24	DRSC39805	-0.99
102	MFS14	DRSC29787	-0.251
103	MFS14	DRSC39753	0.779
104	tipE	DRSC08738	-1.13
105	tipE	DRSC29985	0.238
106	Alg3	DRSC04700	0.989
107	nrv3	DRSC03097	1.86 (active)
108	Or2a	DRSC18690	-0.359
109	Or2a	DRSC39832	-0.608
110	CG14204	DRSC19559	-0.239
111	CG14204	DRSC29941	0.502

Reprinted from above for reference:
no.	gene	DRSC id	mean ATP z-score
22	MFS15	DRSC06523	0.123
23	MFS15	DRSC28274	3.23 (active)
24	Glut3	DRSC16681	0.0389
25	Glut3	DRSC26249	0.48
26	Gr93a	DRSC14593	-0.523
27	Gr93a	DRSC39755	-0.516
28	Tl	DRSC16885	0.181
29	Tl	DRSC39497	0.438
30	Osi18	DRSC12181	-0.622
31	kon	DRSC02033	1.28
